Molecules are shown by their SMILES. Some of the results follow. Many values rest on one well or one pass, so single values are uncertain.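 The apoptosis fraction was the count of cleaved-PARP antibody-stained nuclei relative to all DNA-stained nuclei, imaged in 1,536-well plates. Screening doses were set so most cells survived, and baseline and induced cleaved-PARP levels vary greatly across cell lines.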

Some test systems named below: MZ2-MEL; MeWo; RPMI7951; RVH-421; SkMel28; SkMel2; SkMel30; UACC62; WM115; WM1716; WM1745; WM3526; WM3619; WM451Lu.
Holding throughout (assay): cleaved PARP positive nuclei fraction relative to DMSO control; melanoma cells; higher = more apoptosis
Details in all cases: library dose: low library concentration; 72 h

Take `Cn1cnc2c(F)c(Nc3ccc(Br)cc3Cl)c(C(=O)NOCCO)cc21` [selumetinib] + C[As](C)SC[C@H](NC(=O)CC[C@H](N)C(=O)O)C(=O)NCC(=O)O [Darinaparsin] (first compound 0.015 µM, partner dose 0.4 µM): the “cleaved PARP positive nuclei fraction” value in the test on MZ2-MEL turned out to be 121%; in the test with MeWo, 91.8%; in the test with RPMI7951, 70.7%; with RVH-421, 202%; in the test with SkMel28, 99.7%; in the test on SkMel2, 280%. For the same molecule, the “cleaved PARP positive nuclei fraction” value in the test on SkMel30 was found to be 123%; in the test on UACC62 it was 106%; in the test on WM115, 87.9%; in the test with WM1716, 75.5%; in the test on WM1745, 942%; with WM3526 it was 101%. In addition, the “cleaved PARP positive nuclei fraction” value in the test with WM3619 was determined as 104%; with WM451Lu, 20.3%.
Consider `N.N.[Cl][Pt][Cl]` [cisplatin] + Cc1nc(Nc2ncc(C(=O)Nc3c(C)cccc3Cl)s2)cc(N2CCN(CCO)CC2)n1 [dasatanib] (first compound 1.6 µM, partner dose 0.004 µM), for which the “cleaved PARP positive nuclei fraction” value in the test on MZ2-MEL came out at 209%; with MeWo, 64.5%; in the test with RPMI7951 it was 86.7%; with RVH-421, 95.1%; in the test on SkMel28 it was 383%; in the test on SkMel2, 155%. For the same molecule, the “cleaved PARP positive nuclei fraction” value worked out at 134% in the test with SkMel30; 95.1% with UACC62; 72.9% with WM115; 95.8% with WM1716; 114% with WM1745; 35.3% in the test on WM3526. In addition, the “cleaved PARP positive nuclei fraction” value in the test on WM3619 stood at 113%; in the test with WM451Lu it was 47.1%.
For the molecule `C#Cc1cccc(Nc2ncnc3cc(OCCOC)c(OCCOC)cc23)c1` [erlotinib] + C[As](C)SC[C@H](NC(=O)CC[C@H](N)C(=O)O)C(=O)NCC(=O)O [Darinaparsin] (first compound 0.8 µM, partner dose 0.4 µM), the “cleaved PARP positive nuclei fraction” value in the test with MZ2-MEL is 26.8%; with MeWo it was 143%; in the test on RPMI7951, 63.2%; in the test on RVH-421, 53.3%; in the test with SkMel28, 286%; in the test with SkMel2, 97.5%. For the same molecule, the “cleaved PARP positive nuclei fraction” value in the test on SkMel30 is 133%; in the test with UACC62, 94.8%; in the test on WM115, 125%; in the test on WM1716, 146%; with WM1745 it was 110%; in the test with WM3526, 236%. Moreover, the “cleaved PARP positive nuclei fraction” value in the test on WM3619 came out at 101%; in the test on WM451Lu it was 230%.
Take `N.N.[Cl][Pt][Cl]` [cisplatin] + Clc1ccc(Nc2nnc(Cc3ccncc3)c3ccccc23)cc1 [vatalanib] (first compound 1.6 µM, partner dose 2 µM): the “cleaved PARP positive nuclei fraction” value with MZ2-MEL came to 39.2%; in the test on MeWo, 248%; in the test with RPMI7951, 128%; in the test with RVH-421, 54.1%; with SkMel28 it was 44.8%; in the test with SkMel2, 627%. Also, the “cleaved PARP positive nuclei fraction” value with SkMel30 worked out at 120%; with UACC62, 227%; in the test with WM115, 68.8%; in the test on WM1716, 56.6%; with WM1745, 101%; with WM3526, 79.4%. In addition, the “cleaved PARP positive nuclei fraction” value in the test with WM3619 turned out to be 115%; with WM451Lu it was 129%.
On to `CCCCCCCCc1ccc(CCC(N)(CO)CO)cc1` [fingolimod] + N.N.[Cl][Pt][Cl] [cisplatin] (first compound 2 µM, partner dose 1.6 µM), for which the “cleaved PARP positive nuclei fraction” value in the test on MZ2-MEL is 96.9%; with MeWo, 65.1%; with RPMI7951, 224%; in the test with RVH-421 it was 269%; in the test with SkMel28 it was 88.3%; with SkMel2, 83.3%. Moreover, the “cleaved PARP positive nuclei fraction” value with SkMel30 was 45.9%; in the test with UACC62, 36.5%; with WM115 it was 118%; with WM1716, 42.9%; in the test on WM1745 it was 123%; in the test with WM3526, 104%. In addition, the “cleaved PARP positive nuclei fraction” value with WM3619 was determined as 122%; in the test with WM451Lu, 65.5%.
Take `N.N.[Cl][Pt][Cl]` [cisplatin] + CS(=O)(=O)CCNCc1ccc(-c2ccc3ncnc(Nc4ccc(OCc5cccc(F)c5)c(Cl)c4)c3c2)o1 [lapatinib] (first compound 1.6 µM, partner dose 0.8 µM): the “cleaved PARP positive nuclei fraction” value in the test on MZ2-MEL came out at 87.3%; in the test with MeWo, 51.1%; with RPMI7951, 238%; in the test on RVH-421 it was 105%; with SkMel28, 144%; in the test with SkMel2 it was 71%. Moreover, the “cleaved PARP positive nuclei fraction” value in the test on SkMel30 was found to be 75.5%; with UACC62 it was 124%; with WM115, 157%; in the test on WM1716 it was 153%; in the test on WM1745, 95.6%; in the test with WM3526, 43.3%. Moreover, the figures for the “cleaved PARP positive nuclei fraction” value with WM3619 and with WM451Lu were 94.7% and 56.7%, respectively.
Take `CC[C@]1(O)C[C@H]2CN(CCc3c([nH]c4ccccc34)[C@@](C(=O)OC)(c3cc4c(cc3OC)N(C=O)[C@H]3[C@@](O)(C(=O)OC)[C@H](OC(C)=O)[C@]5(CC)C=CCN6CC[C@]43[C@@H]65)C2)C1` [vincristine] + Cn1cc(C2=C(c3cn(C4CCN(Cc5ccccn5)CC4)c4ccccc34)C(=O)NC2=O)c2ccccc21 [Enzastaurin] (first compound 0.0001 µM, partner dose 0.8 µM): the “cleaved PARP positive nuclei fraction” value in the test on MZ2-MEL was determined as 168%; in the test on MeWo, 90.3%; in the test on RPMI7951 it was 116%; in the test with RVH-421 it was 145%; with SkMel28, 79%; with SkMel2, 28.2%. Also, the “cleaved PARP positive nuclei fraction” value with SkMel30 came out at 57.9%; in the test with UACC62 it was 198%; in the test on WM115 it was 508%; in the test with WM1716, 101%; with WM1745, 105%; in the test with WM3526, 32.2%. The entries for the “cleaved PARP positive nuclei fraction” value in the test with WM3619 and in the test with WM451Lu were 131% and 229%, respectively.
Take `O=C(/C=C/c1cccnc1)NCCCCC1CCN(C(=O)c2ccccc2)CC1` + Cn1cc(C2=C(c3cn(C4CCN(Cc5ccccn5)CC4)c4ccccc34)C(=O)NC2=O)c2ccccc21 [Enzastaurin] (first compound 0.01 µM, partner dose 0.8 µM): the “cleaved PARP positive nuclei fraction” value with MZ2-MEL is 110%; with MeWo, 120%; with RPMI7951, 53.5%; in the test on RVH-421, 243%; in the test with SkMel28, 84.4%; in the test with SkMel2, 2040%. Also, the “cleaved PARP positive nuclei fraction” value with SkMel30 came out at 50.2%; in the test on UACC62, 37.2%; in the test with WM115 it was 65.8%; in the test on WM1716, 36.4%; in the test on WM1745, 93.3%; with WM3526, 48.3%. Moreover, the entries for the “cleaved PARP positive nuclei fraction” value with WM3619 and in the test on WM451Lu were 101% and 70.8%, respectively.
In the case of `Cn1cc(C2=C(c3cn(C4CCN(Cc5ccccn5)CC4)c4ccccc34)C(=O)NC2=O)c2ccccc21` [Enzastaurin] + CS(=O)(=O)c1ccc(C(=O)Nc2ccc(Cl)c(-c3ccccn3)c2)c(Cl)c1 [vismodegib] (first compound 0.8 µM, partner dose 1 µM), the “cleaved PARP positive nuclei fraction” value in the test with MZ2-MEL was 211%; in the test on MeWo it was 59%; in the test with RPMI7951 it was 32.3%; with RVH-421, 93.9%; in the test with SkMel28 it was 34.7%; in the test on SkMel2, 195%. The “cleaved PARP positive nuclei fraction” value with SkMel30 came out at 30.7%; in the test on UACC62 it was 41.9%; with WM115, 113%; with WM1716, 136%; in the test on WM1745, 91%; in the test with WM3526, 149%. Also, the “cleaved PARP positive nuclei fraction” value with WM3619 was found to be 76.6%; with WM451Lu, 231%.
Turning to `O=c1[nH]nc(Sc2ncc([N+](=O)[O-])s2)n1-c1ccc2c(c1)OCCO2` + N.N.[Cl][Pt][Cl] [cisplatin] (first compound 0.2 µM, partner dose 1.6 µM), the “cleaved PARP positive nuclei fraction” value with MZ2-MEL was determined as 66.3%; in the test on MeWo it was 103%; in the test on RPMI7951, 52.8%; in the test with RVH-421, 139%; in the test with SkMel28, 85.3%; with SkMel2 it was 58.3%. Besides, the “cleaved PARP positive nuclei fraction” value was found to be 71% with SkMel30; 180% in the test with UACC62; 99.5% in the test with WM115; 131% in the test on WM1716; 102% with WM1745; 223% in the test with WM3526. Further, the figures for the “cleaved PARP positive nuclei fraction” value in the test on WM3619 and with WM451Lu were 75.2% and 103%, respectively.

These data come from the supplement of paper PMC4604168 (melanoma cell lines).
